Assay results: patent US20150065561A1 (GEORGIA STATE UNIVERSITY RESEARCH FOUNDATION, published 2015)
These are yes or no findings as the source states them, for the method shown. In cells and extracts the contact can be indirect. Some entries that bind do so weakly or less than the wild type.

The chains behind the UniProt entries cited, without tags or fusion partners.
UniProt Q9UNE7: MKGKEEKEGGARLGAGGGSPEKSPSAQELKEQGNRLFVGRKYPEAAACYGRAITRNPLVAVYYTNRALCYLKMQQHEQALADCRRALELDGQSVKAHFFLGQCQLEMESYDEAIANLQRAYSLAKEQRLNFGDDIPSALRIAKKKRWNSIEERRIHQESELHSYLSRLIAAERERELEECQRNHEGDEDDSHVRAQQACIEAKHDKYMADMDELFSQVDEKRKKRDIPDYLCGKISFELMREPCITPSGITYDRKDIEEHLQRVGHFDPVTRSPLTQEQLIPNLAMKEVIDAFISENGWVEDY
UniProt P49841: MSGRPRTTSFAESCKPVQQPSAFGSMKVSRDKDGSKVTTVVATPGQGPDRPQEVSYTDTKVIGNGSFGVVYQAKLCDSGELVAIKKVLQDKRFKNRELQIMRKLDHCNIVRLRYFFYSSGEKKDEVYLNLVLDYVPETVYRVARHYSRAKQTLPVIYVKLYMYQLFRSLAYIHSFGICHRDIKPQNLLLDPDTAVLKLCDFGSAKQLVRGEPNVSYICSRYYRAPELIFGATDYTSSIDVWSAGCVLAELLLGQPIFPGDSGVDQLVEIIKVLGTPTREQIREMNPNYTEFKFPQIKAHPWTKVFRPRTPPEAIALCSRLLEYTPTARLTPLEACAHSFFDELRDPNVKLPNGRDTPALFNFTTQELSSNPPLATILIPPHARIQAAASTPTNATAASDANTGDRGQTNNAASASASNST

How the values were obtained:
[1] = molecular target: recombinant CHIP protein (GST-CHIP) (UniProt Q9UNE7); assay: in vitro GST pull-down: His-GSK3β incubated with GST-CHIP, pulled down with Sepharose 4B beads, immunoblot against His (FIG. 4h)
Myc-CHIP = Myc-CHIP (UniProt Q9UNE7); assay: pull-down from co-transfected cells: HA-GSK3β pulled down with HA probe, immunoblot with anti-Myc antibody (FIG. 4i)

Substance | binding [1] | binding (Myc-CHIP)
recombinant GSK3β protein (His-GSK3β) (from UniProt P49841 1-420) (enzyme) | binds | 
HA-GSK3β (from UniProt P49841 1-420) (enzyme) |  | binds
